Measurements reported in PubChem BioAssay AID1259302 (Sanger Institute, 2017)
The deposit covers 160 reagents; shown is a random part of them. 122 of all reagents (76%) count as active. 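Most active calls come from the trametinib arm; viability under BYL719 or cetuximab treatment is not printed.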 Unmarked entries are inactive. The numbers tell different reagents against one gene apart. No viability above 1 is reported: the scale is capped. Not stated in the record: the amount of reagent, the time to read-out.

Screen: 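Kinome siRNAs acting in synergy with BYL719, cetuximab or trametinib in colorectal cancer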 (follow-up of hits)
System: human SW1116 colorectal cancer cells
Reagent: single siRNA against human genes
Challenge: anchor drugs BYL719 at 1 µM, cetuximab at 5 µg/ml or trametinib at 10 nM, each compared with DMSO vehicle; exposure time not given
Measured: 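Mean replicate viability as a ratio to pooled non-targeting control siRNA, plus per-drug synergy scores comparing siRNA with drug against each given on its own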
Reading the numbers: synergy score with trametinib and synergy score with BYL719 and synergy score with cetuximab: higher = stronger synthetic lethal interaction with the drug; viability, siRNA with DMSO and viability, siRNA with trametinib: higher = more viable cells
Rule for the call: 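Active means a synergy score over 0.10 with any one of the three anchor drugs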

target	reagent no.	synergy score with trametinib	synergy score with BYL719	synergy score with cetuximab	viability, siRNA with DMSO	viability, siRNA with trametinib
BRAF	1	0.0446	-0.0422	0.00394	0.868	0.53
BRAF	2	0.234 (active)	0.0504	0.0212	0.718	0.24
BRAF	3	0.169 (active)	0.0324	-0.0715	0.913	0.434
BRAF	4	0.173 (active)	-0.107	-0.0042	0.789	0.349
STK36	1	0.315 (active)	-0.0208	0.23	0.864	0.256
STK36	2	0.168 (active)	0.0139	0.0232	0.986	0.484
STK36	3	0.178 (active)	-0.0459	0.0163	0.744	0.314
STK36	4	-0.195	-0.135	-0.0471	0.883	0.778
MAP3K8	1	0.101 (active)	0.0433	-0.00364	0.973	0.543
MAP3K8	2	0.055	-0.0268	0.0131	0.599	0.341
MAP3K8	3	0.192 (active)	-0.0121	0.126	0.894	0.4
MAP3K8	4	0.308 (active)	-0.00468	0.0932	0.93	0.307
SYK	1	0.161 (active)	-0.0705	0.000821	0.605	0.239
SYK	2	0.257 (active)	-0.0065	0.0691	0.737	0.23
SYK	3	0.191 (active)	0.0304	0.094	0.58	0.193
SYK	4	0.148 (active)	-0.0228	0.061	0.9	0.447
BMPR2	1	-0.0505	-0.107	0.0314	1	0.712
BMPR2	2	0.267 (active)	-0.0885	0.122	0.878	0.314
BMPR2	3	0.146 (active)	-0.0647	0.0953	0.901	0.45
BMPR2	4	0.0508	-0.0241	-0.0697	1	0.611
IRAK1	1	0.257 (active)	0.0342	0.0275	0.958	0.377
IRAK1	2	0.151 (active)	0.1	0.0633	0.881	0.432
IRAK1	3	0.0232 (active)	-0.00385	0.101	0.841	0.533
IRAK1	4	0.162 (active)	0.219	0.107	0.953	0.469
HSPB8	1	0.214 (active)	-0.0907	0.0124	0.657	0.221
HSPB8	2	0.0794	-0.0381	0.0611	1	0.582
HSPB8	3	-0.00582	-0.152	-0.116	0.848	0.567
HSPB8	4	0.0831	-0.14	-0.307	0.796	0.443
NLK	1	0.103 (active)	-0.0114	0.105	0.91	0.499
NLK	2	0.22 (active)	0.0021	0.108	0.669	0.223
NLK	3	0.127 (active)	-0.0929	0.0805	0.965	0.511
NLK	4	0.0824	-0.133	-0.0914	0.838	0.472
PAK1	1	0.22 (active)	-0.115	-0.0458	0.586	0.168
PAK1	2	0.129 (active)	-0.121	0.0289	0.531	0.222
PAK1	3	0.215 (active)	0.0343	0.0285	0.615	0.191
PAK1	4	0.224 (active)	-0.0171	0.0893	0.869	0.351
AK2	1	0.174 (active)	-0.164	-0.0463	0.893	0.417
AK2	2	0.44 (active)	0.114	0.26	1	0.222
AK2	3	0.15 (active)	-0.0131	0.00192	1	0.511
AK2	4	0.318 (active)	-0.0117	0.267	0.822	0.226

6 of these entries in another layout.
target | reagent no. | synergy score with trametinib | synergy score with BYL719 | synergy score with cetuximab | viability, siRNA with DMSO | viability, siRNA with trametinib
STK36 | 3 | 0.178 (active) | -0.0459 | 0.0163 | 0.744 | 0.314
STK36 | 4 | -0.195 | -0.135 | -0.0471 | 0.883 | 0.778
MAP3K8 | 1 | 0.101 (active) | 0.0433 | -0.00364 | 0.973 | 0.543
MAP3K8 | 2 | 0.055 | -0.0268 | 0.0131 | 0.599 | 0.341
MAP3K8 | 3 | 0.192 (active) | -0.0121 | 0.126 | 0.894 | 0.4
MAP3K8 | 4 | 0.308 (active) | -0.00468 | 0.0932 | 0.93 | 0.307
